The record followed here is patent US4426453A, “Derivatives of iodothyronine compounds and their use in an assay for the free iodothyronine compounds” (Amersham International Limited, priority 1980, dated 1984).

Data set [1] can be described thus: Independence of measured free-T4 concentration from serum dilution with the tracer. The settings on record: qualitative; 125I-labelled derivative as tracer. On the set-up: species or system human.
The nature of data set [2]: Binding to polystyrene assay tubes. The settings on record: qualitative.

Regarding `COC(=O)[C@H](Cc1cc(I)c(Oc2cc(I)c(O)c(I)c2)c(I)c1)NC(C)=O` [N-Acetyl-thyroxine-methyl ester, N-acetyl-thyroxine-methyl ester, reference compound], the “free-T4 concentration unaffected by dilution of serum sample” value in data set [1] is on record as “only approximately true”.

For `O=C(O)CN(CCN(CC(=O)O)CC(=O)NC(Cc1cc(I)c(Oc2cc(I)c(O)c(I)c2)c(I)c1)C(=O)O)CC(=O)O` (stereo not drawn) [T4.EDTA, 1-{3',5'-di-iodo-4'(3",5"-di-iodo-4"-Hydroxyphenoxy)phenyl}2-carboxy-6,9-dicarboxymethyl-4-oxo-3,6,9-triazaundecan-11-oic acid], the “free-T4 concentration unaffected by dilution of serum sample” value in data set [1] was “much more accurately true”. In data set [2], the “binding to assay tubes” value is recorded as “shows no significant tendency to bind to assay tubes”.
